Common to all, as to experiment: co-IP
One test concerns the target GFP-Centrin-2 (UniProt P41208).
The target of a further test is T1, GFP-POC1B (UniProt Q8TC44).
T1 sequence: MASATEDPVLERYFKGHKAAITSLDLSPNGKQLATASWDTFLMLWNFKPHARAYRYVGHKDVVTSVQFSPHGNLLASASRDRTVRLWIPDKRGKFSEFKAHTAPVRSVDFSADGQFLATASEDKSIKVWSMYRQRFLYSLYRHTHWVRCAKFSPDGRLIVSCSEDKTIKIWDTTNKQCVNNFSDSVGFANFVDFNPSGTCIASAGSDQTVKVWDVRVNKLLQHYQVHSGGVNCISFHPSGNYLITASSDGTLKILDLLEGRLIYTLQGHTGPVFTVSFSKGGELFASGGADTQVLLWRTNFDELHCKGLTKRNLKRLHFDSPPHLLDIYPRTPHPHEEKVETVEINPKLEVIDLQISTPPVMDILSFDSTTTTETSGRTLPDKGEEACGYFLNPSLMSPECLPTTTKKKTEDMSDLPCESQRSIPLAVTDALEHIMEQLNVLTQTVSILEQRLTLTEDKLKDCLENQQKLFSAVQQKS

Sequences of proteins named here, by UniProt entry; tags and fusion partners are left off.
UniProt P41208: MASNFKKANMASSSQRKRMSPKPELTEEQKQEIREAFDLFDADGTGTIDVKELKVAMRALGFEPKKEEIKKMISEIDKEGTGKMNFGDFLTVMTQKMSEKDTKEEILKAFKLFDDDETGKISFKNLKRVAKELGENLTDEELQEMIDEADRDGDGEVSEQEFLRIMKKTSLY

A further test addresses T2, GFP-CCDC15 (UniProt Q0P6D6).
T2 sequence: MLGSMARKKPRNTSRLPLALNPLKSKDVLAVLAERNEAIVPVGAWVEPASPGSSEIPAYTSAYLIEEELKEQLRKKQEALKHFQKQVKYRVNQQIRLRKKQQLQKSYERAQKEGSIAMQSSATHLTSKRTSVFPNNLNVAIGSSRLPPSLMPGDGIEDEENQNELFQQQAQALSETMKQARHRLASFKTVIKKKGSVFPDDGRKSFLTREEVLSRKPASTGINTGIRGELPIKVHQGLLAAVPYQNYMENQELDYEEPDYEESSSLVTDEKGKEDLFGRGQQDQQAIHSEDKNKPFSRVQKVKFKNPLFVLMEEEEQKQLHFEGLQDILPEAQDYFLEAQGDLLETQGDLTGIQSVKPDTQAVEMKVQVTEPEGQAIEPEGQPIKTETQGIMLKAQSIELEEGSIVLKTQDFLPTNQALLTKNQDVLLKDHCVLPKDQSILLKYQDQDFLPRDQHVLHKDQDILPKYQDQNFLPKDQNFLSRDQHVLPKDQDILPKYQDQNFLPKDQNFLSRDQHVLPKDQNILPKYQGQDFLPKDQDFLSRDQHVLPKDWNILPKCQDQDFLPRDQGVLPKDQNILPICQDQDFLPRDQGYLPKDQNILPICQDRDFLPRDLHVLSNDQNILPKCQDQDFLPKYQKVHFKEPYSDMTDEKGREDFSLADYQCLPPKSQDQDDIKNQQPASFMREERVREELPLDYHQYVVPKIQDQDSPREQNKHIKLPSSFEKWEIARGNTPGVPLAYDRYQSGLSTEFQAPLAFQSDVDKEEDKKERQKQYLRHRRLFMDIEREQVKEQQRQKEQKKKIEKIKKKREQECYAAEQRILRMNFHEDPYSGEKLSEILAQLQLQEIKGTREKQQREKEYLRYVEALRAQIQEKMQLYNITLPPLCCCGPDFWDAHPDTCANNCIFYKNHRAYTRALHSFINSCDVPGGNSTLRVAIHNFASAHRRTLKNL

These are yes or no findings as the source states them, for the method shown. In cells and extracts the contact can be indirect. Some binding calls cover weakened binding; strength is not graded here. Tags and fused reporters may be left off the sequences shown.

B1: FlagBirA*-CCDC15 (protein, UniProt Q0P6D6 1-951)
chain: T2 sequence
As for B1, the binding result with GFP-Centrin-2 and with GFP-POC1B was “binds” each time.

B2: FLAG-FAM161A (protein, UniProt Q3B820 1-660)
chain: MATSHRVAKLVASSLQTPVNPITGARVAQYEREDPLKALAAAEAILEDEEEEKVAQPAGASADLNTSFSGVDEHAPISYEDFVNFPDIHHSNEEYFKKVEELKAAHIETMAKLEKMYQDKLHLKEVQPVVIREDSLSDSSRSVSEKNSYHPVSLMTSFSEPDLGQSSSLYVSSSEEELPNLEKEYPRKNRMMTYAKELINNMWTDFCVEDYIRCKDTGFHAAEKRRKKRKEWVPTITVPEPFQMMIREQKKKEESMKSKSDIEMVHKALKKQEEDPEYKKKFRANPVPASVFLPLYHDLVKQKEERRRSLKEKSKEALLASQKPFKFIAREEQKRAAREKQLRDFLKYKKKTNRFKARPIPRSTYGSTTNDKLKEEELYRNLRTQLRAQEHLQNSSPLPCRSACGCRNPRCPEQAVKLKCKHKVRCPTPDFEDLPERYQKHLSEHKSPKLLTVCKPFDLHASPHASIKREKILADIEADEENLKETRWPYLSPRRKSPVRCAGVNPVPCNCNPPVPTVSSRGREQAVRKSEKERMREYQRELEEREEKLKKRPLLFERVAQKNARMAAEKHYSNTLKALGISDEFVSKKGQSGKVLEYFNNQETKSVTEDKESFNEEEKIEERENGEENYFIDTNSQDSYKEKDEANEESEEEKSVEESH
For B2, the binding result with GFP-CCDC15 is recorded as “binds”.

B3: V5BirA*-SAS6 (protein, UniProt Q6UVJ0 1-657)
chain: MSQVLFHQLVPLQVKCKDCEERRVSIRMSIELQSVSNPVHRKDLVIRLTDDTDPFFLYNLVISEEDFQSLKFQQGLLVDFLAFPQKFIDLLQQCTQEHAKEIPRFLLQLVSPAAILDNSPAFLNVVETNPFKHLTHLSLKLLPGNDVEIKKFLAGCLKCSKEEKLSLMQSLDDATKQLDFTRKTLAEKKQELDKLRNEWASHTAALTNKHSQELTNEKEKALQAQVQYQQQHEQQKKDLEILHQQNIHQLQNRLSELEAANKDLTERKYKGDSTIRELKAKLSGVEEELQRTKQEVLSLRRENSTLDVECHEKEKHVNQLQTKVAVLEQEIKDKDQLVLRTKEAFDTIQEQKVVLEENGEKNQVQLGKLEATIKSLSAELLKANEIIKKLQGDLKTLMGKLKLKNTVTIQQEKLLAEKEEKLQKEQKELQDVGQSLRIKEQEVCKLQEQLEATVKKLEESKQLLKNNEKLITWLNKELNENQLVRKQDVLGPSTTPPAHSSSNTIRSGISPNLNVVDGRLTYPTCGIGYPVSSAFAFQNTFPHSISAKNTSHPGSGTKVQFNLQFTKPNASLGDVQSGATISMPCSTDKENGENVGLESKYLKKREDSIPLRGLSQNLFSNSDHQRDGTLGALHTSSKPTALPSASSAYFPGQLPNS
Consider B3, for which the binding entry with GFP-CCDC15 is given as “no binding”.
